# Results as given in PubChem BioAssay AID588497 (NMMLSC, 2011).
# Among all 360,000 compounds or so, about 780 (0.22%) were called active. The shares of active, inactive and inconclusive entries below differ from those in the screen. Cut-off read from the data, not from the text of the source: active = inhibition above about 35% (passing the limit was not always enough); inconclusive = no clear call, values can overlap the other calls.
# System: Botulinum neurotoxin type F light chain protease (Clostridium botulinum)
# Assay: BoNT/F light chain protease inhibitors, primary screen, biochemical, flow cytometry, MLPCN library (AID 588497); note: plate controls were buffer without enzyme for full effect and enzyme alone for no effect
# Conditions: Multiplex microsphere protease cleavage assay, at 10 µM, stronger effect = higher value
row,Structure (SMILES),inhibition
1,CC(C)Oc1ccccc1C1(c2ccccc2)NC(=O)NC1=O (stereo unspecified),inconclusive: -8.1%
2,CC(C)CCNC(=O)C1c2ccccc2Oc2ccccc21,inconclusive: 58.3%
3,CC1CCCCN1S(=O)(=O)Cc1ccccc1Cl (stereo unspecified),inconclusive: -5.2%
4,Cn1c(=O)n(C)c2cc([N+](=O)[O-])c(N3CCN(C(=O)c4ccc(F)cc4)CC3)cc21,inactive: -5.4%
5,CCC(=O)O/N=C(\N)c1ccc(Oc2cc(C)c(Cl)c(C)c2)c([N+](=O)[O-])c1,inconclusive: 23.6%
6,Cc1c(S(=O)(=O)c2ccccn2)c(N)n(Cc2cccc(Cl)c2)c1C,inconclusive: -193%
7,OC(COc1ccc(Cl)cc1)CN1CCN(c2ccccn2)CC1 (stereo unspecified),inconclusive: 85%
8,COc1ccc(Oc2ccc(C(F)(F)F)cc2N)cc1,inconclusive: 24%
9,COc1cccc(N(C(C)=O)C2=NCCCS2)c1,inactive: -32.5%
10,CCCCOc1cccc(-c2nnc(N)s2)c1,inactive: -1.4%
11,Cc1ccc(Cn2c(N/N=C/c3ccncc3)nc3c2c(=O)n(C)c(=O)n3C)cc1,inconclusive: -3.2%
12,CC(C)(CNC(=O)c1cccc(F)c1)CNC(=O)c1cccc(F)c1,inconclusive: -2.2%
13,O=C(/C=C/c1ccc(F)cc1)NCCCn1ccnc1,inactive: 31.1%
14,NNc1nc(N)c2c(n1)-c1ccccc1CC21CCCC1,inactive: -10.4%
15,Cn1c2c(c(=O)n(C)c1=O)C(NC(=O)c1ccco1)(C(F)(F)F)C(=O)N2 (stereo unspecified),inconclusive: -25.8%
16,COc1ccc(CNC(=O)CCC(=O)Nc2nnc(CC(C)C)s2)cc1,inconclusive: 4.4%
17,c1ccc2c(c1)CCc1snnc1-2,active: 40.3%
18,O=[N+]([O-])c1cccc(S(=O)(=O)NCCCn2ccnc2)c1,inactive: -10%
19,Cc1ccccc1CN(C)C(=O)c1ccc2ccccc2n1,inactive: -8%
20,O=C(O)Cn1nc(-c2ccc(Cl)cc2)ccc1=O,inconclusive: -6.7%
21,COc1ccc2oc(C(=O)OCC(=O)Nc3cc(S(=O)(=O)N4CCOCC4)ccc3C)c(C)c2c1,inactive: -7%
22,CCN1CCN(CCCNC(=O)Cn2nc(C)n3nc(-c4ccccc4)cc3c2=O)CC1,inactive: -4.4%
23,Cc1noc(NS(=O)(=O)c2ccc(NC(=O)c3cc4ccccc4o3)cc2)c1C,inactive: -4.3%

row,Structure (SMILES),inhibition
1,Cc1ccc(C)c(NC(=O)CCN2CCCC(C)C2)c1 (stereo unspecified),inconclusive: -33.8%
2,O=C(c1ccc(NS(=O)(=O)c2ccc3c(c2)OCCO3)cc1)N1CCCCC1,inactive: 1.7%
3,CCOC(=O)C(=O)NNc1ccccc1OC,inconclusive: 126%
4,Cc1ccc(C2C(C(=O)c3ccco3)=C(O)C(=O)N2c2ncccn2)cc1 (stereo unspecified),inconclusive: 15.7%
5,COc1ccc(-c2coc3cc(O)ccc3c2=O)cc1OC,inactive: -1.4%
6,COc1cc(OC)cc(C(=O)N2CCN(Cc3ccc4c(c3)OCO4)CC2)c1,inconclusive: 2%
7,COc1ccccc1NC(=O)COC(=O)CCn1c(C)csc1=O,inconclusive: 26.8%
8,CCn1c(CNC(=O)c2ccccc2F)cc2cc(C)ccc21,inconclusive: 4.7%
9,c1ccc2c(c1)CCCN2c1nc2ccccc2n2cnnc12,inactive: -8.8%
10,CCN(CC)CCCNC(=O)c1cc2nc(-c3ccccc3)cc(C(F)(F)F)n2n1,inconclusive: -0.9%
11,CNC(=O)N(O)C1N(/N=C/c2ccc(SC)cc2)C(=S)SC1(C)C (stereo unspecified),inactive: 0.2%
12,COc1ccc(C(=O)N/C(=C/c2cccnc2)C(=O)N2CCOCC2)cc1OC,inconclusive: -20.9%
13,Cc1cc(=O)oc2c(C)c(OCC(=O)c3ccccc3)ccc12,inconclusive: 33.8%
14,NC(=S)NN=C1c2cc(OCCN3CCOCC3)ccc2-c2ccc(OCCN3CCOCC3)cc21,inconclusive: -23.9%
15,COc1ccccc1N1CCN(C(=O)CCNS(=O)(=O)c2cc(Br)cnc2N)CC1,inconclusive: 9.7%
16,COc1ccc(Cl)cc1C(=O)NC(=S)Nc1nc(C)cc(C)n1,inconclusive: -38.7%
17,Cc1ccccc1OCCn1cc(C=O)c2ccccc21,inconclusive: -44.1%
18,CC(=O)c1cnc2cc(-c3ccc(C)cc3)nn2c1C,inactive: 0.3%
19,CCOc1ccc(-c2nnn(CC(=O)NCCc3c[nH]c4ccccc34)n2)cc1,inactive: 1.3%
20,Cc1ccc(-n2ncc(C(=O)N3CCN(C(=O)c4ccco4)CC3)c2C2CCN(C(=O)OC(C)(C)C)CC2)cc1C,inconclusive: -7.9%
21,CCOC(=O)N1CCC(N2C(=O)c3ccccc3C2Nc2ccc3c(C)cc(=O)oc3c2)CC1 (stereo unspecified),inactive: -6%
22,CCOP(=O)(Cc1ccc(C(=O)CC)o1)OCC,inconclusive: -109%
23,CSc1ncccc1C(=O)N1CCCC(Nc2ccc(C)c(C)c2)C1 (stereo unspecified),inactive: -7.7%

row,Structure (SMILES),inhibition
1,COc1ccccc1N1CCN(Cc2cc(=O)c(OCC(=O)NC3CCCC3)co2)CC1,inconclusive: -4.1%
2,Cc1ccc(-c2nc(Nc3cccc(O)c3)c3ccccc3n2)cc1,inconclusive: -0.6%
3,CCc1cccc(CC)c1N(COC)C(=O)Cn1nnc2ccccc21,inactive: -6%
4,COC(c1ccccc1)(c1ccccc1)C(Oc1nccc(C)n1)C(=O)O (stereo unspecified),inconclusive: -12.9%
5,C=CCc1ccccc1OCC(=O)OCCNC(=O)c1cccnc1,inconclusive: -10.3%
6,Cc1ccc2cccnc2c1NC(=S)NC(=O)c1ccccc1,inactive: 0.6%
7,CN1C(=O)NC(c2ccccc2[N+](=O)[O-])C2=C1CC(C)(C)CC2=O (stereo unspecified),inconclusive: -21.3%
8,CCOC(=O)c1ccc(Oc2coc3cc(O)ccc3c2=O)cc1,inconclusive: -20.7%
9,O=C(O)c1ccc(Cl)c(S(=O)(=O)N(Cc2ccccc2)c2ccc(F)cc2)c1,inconclusive: -2.9%
10,CCn1c(COc2ccccc2)nnc1SCC(=O)C(C)(C)C,inactive: -5.7%
11,Cc1ccc(OCCN2CCN(C(=O)CCC(=O)Nc3nnc(CC(C)C)s3)CC2)cc1,inconclusive: 20.1%
12,C/C(=N\NC(=O)Cn1c(-c2ccccn2)nc2ccccc21)c1ccccc1,inactive: -4%
13,Cc1ccc(Cl)c2c(N=Nc3ccccc3)c(O)[nH]c12,inconclusive: -23.2%
14,C=CCn1c(-c2cnn(-c3ccccc3)c2N)n[nH]c1=S,inconclusive: -64%
15,CCCCCCn1c(=O)c(C(=O)Nc2cccc(C)n2)c(O)c2ccccc21,inconclusive: -36.3%
16,O=C(CCC1CCCC1)N1CCN(S(=O)(=O)c2ccc(Br)cc2)CC1,active: 82.7%
17,COc1ccccc1CNC(=O)COc1ccc(C)cc1,inconclusive: -24.1%
18,Cc1ccc(C(=O)N2CCN(c3ccc(C(F)(F)F)cn3)CC2)o1,inconclusive: 1.1%
19,COCCN(C(=O)CC(C)(C)C)c1nnc(-c2cccnc2)s1,inactive: -2.6%
20,Cc1c(NC(=O)C(C)N2C(=O)C3CCCCC3C2=O)c(=O)n(-c2ccccc2)n1C (stereo unspecified),inactive: -3.8%
21,CCOC(=O)CN1C(=N)N(c2nc(NC(C)C)nc(OC)n2)CC1=O,inconclusive: -64.1%
22,CCOc1cc(/C=C(/C#N)C(=O)Nc2ccc(OC)cc2)ccc1OCc1ccc(C(=O)O)cc1,inconclusive: 49.5%
23,CCCCN(CC)CCNC(=O)c1cc2c(=O)n(C)c3ccccc3c2s1,inconclusive: -9.9%

row,Structure (SMILES),inhibition
1,CC(C)CCOP(=O)(c1ccc(N(C)C)cc1)C(Nc1ccccc1)c1ccc(N(C)C)cc1 (stereo unspecified),inconclusive: 19.7%
2,COc1ccc(-c2nn(-c3ccccc3)cc2C=O)cc1[N+](=O)[O-],inconclusive: -4%
3,CC(C)CN(C(=O)COC(=O)c1ccc(Br)cc1)c1c(N)n(Cc2ccccc2)c(=O)[nH]c1=O,inconclusive: -0.7%
4,COc1ccc(CC(=O)Nc2cccnc2)cc1,inconclusive: -14.7%
5,COC(=O)CN1C(=O)CSc2ccc(S(=O)(=O)N3CCC(C)CC3)cc21,inactive: -5.5%
6,Cn1nc(C(F)(F)F)c(-c2ccccc2)c1NC(=O)c1cccnc1,inconclusive: 11.1%
7,NNC(=O)c1ccc(COc2ccc3ccccc3c2)o1,inconclusive: 2.1%
8,O=S(=O)(NCc1cccs1)c1cccc2cccnc12,inactive: -2.8%
9,CC(=O)Nc1ccc(S(=O)(=O)NC(C)CCc2ccccc2)cc1 (stereo unspecified),inconclusive: -49.8%
10,COCCn1c(=NC(=O)c2cc(-c3cccs3)nc3ccccc23)sc2cc(S(N)(=O)=O)ccc21,inactive: 2.1%
11,CCOc1ccccc1OCCn1nc2ccccc2n1,inconclusive: -8.6%
12,CCOc1ccccc1NC(=O)CSc1nnc(CNC(=O)c2ccccc2F)o1,inactive: 1.3%
13,O=S(=O)(Nc1ccccc1)c1cccc2nsnc12,inconclusive: 1.7%
14,O=C(O)CCN1C(=O)/C(=C\c2ccc(-c3nc4ccccc4s3)o2)SC1=S,inactive: 10.8%
15,O=C(N/N=C/c1cccc2ccccc12)c1cccs1,inconclusive: 1.6%
16,O=C(CSCc1ccc(Br)cc1)Nc1ccccc1C(=O)N1CCOCC1,inactive: -6.2%
17,COc1ccc(COC[B-](F)(F)F)cc1,inactive: -6.5%
18,CN(C)C(=O)CSc1ncccc1-c1nc2ccccc2[nH]1,inconclusive: -36.2%
19,Cc1cccc(CN(CC(=O)N/N=C/c2cccs2)S(=O)(=O)c2ccc(Cl)cc2)c1,inactive: -22.3%
20,COCCCn1c(=O)c2ccccc2n(Cc2ccccc2C)c1=O,inconclusive: 16.8%
21,COc1ccccc1CNC(=O)C1Cc2ccccc2C(=O)O1 (stereo unspecified),active: 40.9%
22,COc1ccc(N2C(=NC(=O)CCCc3ccccc3)SC3CS(=O)(=O)CC32)cc1 (stereo unspecified),inconclusive: 12.4%

# Quoted at random: 4 entries already listed.
row,Structure (SMILES),inhibition
6,Cn1nc(C(F)(F)F)c(-c2ccccc2)c1NC(=O)c1cccnc1,inconclusive: 11.1%
10,COCCn1c(=NC(=O)c2cc(-c3cccs3)nc3ccccc23)sc2cc(S(N)(=O)=O)ccc21,inactive: 2.1%
4,COc1ccc(CC(=O)Nc2cccnc2)cc1,inconclusive: -14.7%
3,CC(C)CN(C(=O)COC(=O)c1ccc(Br)cc1)c1c(N)n(Cc2ccccc2)c(=O)[nH]c1=O,inconclusive: -0.7%
